Measurements from paper PMC6434023, “A TonB-dependent transporter is required for secretion of protease PopC across the bacterial outer membrane” (Nature Communications, 2019).
Results are given in words; binding and its absence hold for the method and conditions named. For part of these data: In cells and extracts the contact can be indirect. Some entries that bind do so weakly or less than the wild type. Values belong to the binder of their own block, whether it stands above or below them.

Chains of the proteins cited; added tags and fusions are not shown. Residues count along the entry.
UniProt P02929, residues 139-239: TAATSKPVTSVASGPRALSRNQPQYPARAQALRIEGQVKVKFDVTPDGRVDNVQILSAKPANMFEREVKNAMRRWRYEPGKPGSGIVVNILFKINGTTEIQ

How the values were obtained:
[1] = biological target: C-terminal domain of TonB from E. coli (TonB 139-239) (E. coli) (UniProt P02929); assay: two-hybrid; bacterial two-hybrid (BACTH) in E. coli BTH101; fragments fused N- or C-terminally to T25 and T18 of CyaA; blue colour on X-Gal/IPTG plates and β-galactosidase specific activity
[2] = biological target: T1, TonB-dependent transporter Oar (MXAN_1450) (M. xanthus (endogenous in DK101)) (UniProt P38370); assay: cross-linking; in vivo DSP (0.25 mM, 30 min, 30 °C, PBS) on M. xanthus cells starved for 6 h; membrane fraction isolated, with or without 50 mM DTT; immunoblots with α-PopC and α-Oar; Δoar and popC mutants as controls
T1 sequence: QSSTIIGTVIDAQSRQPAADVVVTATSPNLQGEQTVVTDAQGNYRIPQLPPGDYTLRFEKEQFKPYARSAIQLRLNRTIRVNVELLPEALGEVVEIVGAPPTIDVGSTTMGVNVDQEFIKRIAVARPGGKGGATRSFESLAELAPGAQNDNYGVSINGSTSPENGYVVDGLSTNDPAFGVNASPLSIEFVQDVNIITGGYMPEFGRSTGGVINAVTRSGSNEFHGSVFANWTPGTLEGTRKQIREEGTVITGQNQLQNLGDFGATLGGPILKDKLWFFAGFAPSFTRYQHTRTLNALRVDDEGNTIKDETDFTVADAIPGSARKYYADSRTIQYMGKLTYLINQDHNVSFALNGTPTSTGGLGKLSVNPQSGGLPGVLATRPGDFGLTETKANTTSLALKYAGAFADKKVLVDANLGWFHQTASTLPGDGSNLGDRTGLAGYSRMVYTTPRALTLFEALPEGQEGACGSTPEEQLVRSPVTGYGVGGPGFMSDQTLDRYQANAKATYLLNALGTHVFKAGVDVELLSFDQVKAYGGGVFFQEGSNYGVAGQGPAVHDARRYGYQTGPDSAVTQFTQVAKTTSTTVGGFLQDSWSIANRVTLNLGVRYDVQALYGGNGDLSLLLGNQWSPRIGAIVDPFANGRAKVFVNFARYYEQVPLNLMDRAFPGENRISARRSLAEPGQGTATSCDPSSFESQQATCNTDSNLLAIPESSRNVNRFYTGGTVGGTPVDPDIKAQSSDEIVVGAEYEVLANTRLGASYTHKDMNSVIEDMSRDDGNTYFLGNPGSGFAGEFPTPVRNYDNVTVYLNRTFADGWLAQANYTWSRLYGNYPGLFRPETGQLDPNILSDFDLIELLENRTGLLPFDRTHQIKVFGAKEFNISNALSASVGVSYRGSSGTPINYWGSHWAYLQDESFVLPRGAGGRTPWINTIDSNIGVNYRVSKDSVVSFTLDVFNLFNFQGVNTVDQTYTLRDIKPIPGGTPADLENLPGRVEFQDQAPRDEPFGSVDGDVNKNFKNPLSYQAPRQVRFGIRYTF

[3] = biological target: T2, PopC expressed in E. coli (M. xanthus, UniProt Q1DFT5 1-475); assay: co-IP; α-PopC antibodies and protein G magnetic beads on isolated membranes (50 mM HEPES pH 7.5, 150 mM NaCl, 5 mM EDTA, 1% sodium lauroylsarcosinate) of E. coli WT and ΔtonB expressing PopC and/or Oar; 4 °C; immunoblots for PopC and Oar
T2 construct: PopC of Myxococcus xanthus, expressed as 'native' PopC in E. coli; no tag is named; 'Native' probably means the untagged whole protein; also called native PopC; source: E. coli Rosetta-2(DE3) (WT or ΔtonB), IPTG-induced, in isolated membranes / cell fractions
T2 sequence (looked up): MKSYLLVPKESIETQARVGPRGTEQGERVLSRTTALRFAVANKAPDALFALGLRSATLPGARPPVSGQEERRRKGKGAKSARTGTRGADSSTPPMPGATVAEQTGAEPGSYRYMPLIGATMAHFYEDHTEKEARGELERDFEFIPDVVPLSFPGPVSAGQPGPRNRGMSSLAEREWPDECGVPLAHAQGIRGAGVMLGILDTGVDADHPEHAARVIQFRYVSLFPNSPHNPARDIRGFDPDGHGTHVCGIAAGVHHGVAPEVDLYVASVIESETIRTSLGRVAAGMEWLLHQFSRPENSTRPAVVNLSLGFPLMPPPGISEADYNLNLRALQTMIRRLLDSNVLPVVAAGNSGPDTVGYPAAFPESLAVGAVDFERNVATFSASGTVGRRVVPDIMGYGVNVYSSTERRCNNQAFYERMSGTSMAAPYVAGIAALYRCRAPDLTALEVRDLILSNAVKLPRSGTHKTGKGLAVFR

binding [1]: binds
B1: periplasmic N-terminal region of Oar that bears NTE and plug domains (Oar 24-248) (domain or fragment, UniProt P38370 24-248)
chain: AFAQSSTIIGTVIDAQSRQPAADVVVTATSPNLQGEQTVVTDAQGNYRIPQLPPGDYTLRFEKEQFKPYARSAIQLRLNRTIRVNVELLPEALGEVVEIVGAPPTIDVGSTTMGVNVDQEFIKRIAVARPGGKGGATRSFESLAELAPGAQNDNYGVSINGSTSPENGYVVDGLSTNDPAFGVNASPLSIEFVQDVNIITGGYMPEFGRSTGGVINAVTRSGSNE

binding [2]: binds
B2: protease PopC (enzyme, UniProt Q1DFT5 1-475)
chain: T2 sequence (looked up)

binding [3]: binds
B3: Oar expressed in E. coli (natural protein, M. xanthus, UniProt P38370 27-1061, looked up)
chain: T1 sequence
notes: Oar (MXAN_1450) of Myxococcus xanthus, expressed as 'native' Oar in E. coli; no tag is named; 'Native' probably means the untagged protein with its own signal peptide; it was found enriched in the E. coli outer membrane; also called native Oar; source: E. coli Rosetta-2(DE3) (WT or ΔtonB), IPTG-induced, in isolated membranes / cell fractions
